# Some results were stated once for a whole list of compounds, not compound by compound.
# Amino acid sequences for entries named in this document (tags omitted).
# UniProt Q13882, whole entry: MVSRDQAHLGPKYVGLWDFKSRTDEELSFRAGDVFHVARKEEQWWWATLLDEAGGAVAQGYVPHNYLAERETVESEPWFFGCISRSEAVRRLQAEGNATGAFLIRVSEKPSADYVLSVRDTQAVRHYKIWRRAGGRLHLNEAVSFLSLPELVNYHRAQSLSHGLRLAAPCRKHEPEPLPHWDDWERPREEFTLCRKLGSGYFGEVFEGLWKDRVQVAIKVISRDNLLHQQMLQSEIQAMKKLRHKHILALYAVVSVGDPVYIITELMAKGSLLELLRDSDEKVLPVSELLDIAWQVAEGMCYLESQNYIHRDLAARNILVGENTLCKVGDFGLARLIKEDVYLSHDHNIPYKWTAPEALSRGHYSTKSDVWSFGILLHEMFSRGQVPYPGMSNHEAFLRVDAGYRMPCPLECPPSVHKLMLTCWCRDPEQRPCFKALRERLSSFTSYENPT
# Target: T1, BRK (Homo sapiens, UniProt Q13882)
# T1 construct: purchased Carna Biosciences
# Assay: Off-chip Mobility Shift Assay (MSA) kinase inhibition
# Assay type: biochemical
# Settings: low nM activity
# Protocol: Off-chip Mobility Shift Assay (MSA) by Cama Biosciences, Inc (Natick, Mass.) a used for measuring the kinase activity and inhibition. • 1) The 5 μL of x4 compound solution, 5 μL of x4 Substrate/ATP/Metal solution, and 10 μL of x2 kinase solution were prepared with assay buffer (20 mM HEPES, 0.01% Triton X100, 2 mM DTT, pH 7.5) and mixed and incubated in a well of polypropylene 384 well microplate for 1 or 5 hour(s)* at room temperature.
smiles,measurement,value
CC(O)CS(=O)(=O)Nc1ccc(F)c(C(=O)c2c[nH]c3ncc(-c4ccc(Cl)cc4)cc23)c1F (stereo not shown) [200-115],inhibition of Breast tumor related kinase (BRK),greater than 30%

# — patent US10106538B2, “Inhibitors of protein kinases” (PRINCETON DRUG DISCOVERY INC, priority 2015, dated 2018)
